# This is one part of the list.
# B1: MtEccB1 (Mycobacterium tuberculosis H37Rv), O69734 (protein)
# chain: MGLRLTTKVQVSGWRFLLRRLEHAIVRRDTRMFDDPLQFYSRSIALGIVVAVLILAGAALLAYFKPQGKLGGTSLFTDRATNQLYVLLSGQLHPVYNLTSARLVLGNPANPATVKSSELSKLPMGQTVGIPGAPYATPVSAGSTSIWTLCDTVARADSTSPVVQTAVIAMPLEIDASIDPLQSHEAVLVSYQGETWIVTTKGRHAIDLTDRALTSSMGIPVTARPTPISEGMFNALPDMGPWQLPPIPAAGAPNSLGLPDDLVIGSVFQIHTDKGPQYYVVLPDGIAQVNATTAAALRATQAHGLVAPPAMVPSLVVRIAERVYPSPLPDEPLKIVSRPQDPALCWSWQRSAGDQSPQSTVLSGRHLPISPSAMNMGIKQIHGTATVYLDGGKFVALQSPDPRYTESMYYIDPQGVRYGVPNAETAKSLGLSSPQNAPWEIVRLLVDGPVLSKDAALLEHDTLPADPSPRKVPAGASGAP
# Experiments:
# Assay in all cases: glycan array binding signal (z-score within array); higher = stronger binding
# Details in all cases: glycan notation: IUPAC condensed, linker removed
# [1] = molecular target: Gal(b1-3)GlcNAc(b1-3)Gal(b1-4)GlcNAc(b1-2)Man(a1-3)[Gal(b1-3)GlcNAc(b1-3)Gal(b1-4)GlcNAc(b1-2)Man(a1-6)]Man(b1-4)GlcNAc(b1-4)GlcNAc
# Outline: (§1)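 Negative Z-scores can be read as non-binding. The Z-score is calculated within each array and then averaged across arrays of one protein sequence at different concentrations or buffers and across linkers. Arrays, 3228 in all, were curated from the Consortium for Functional Glycomics database and kept only where the protein sequence was available.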
# [2] = molecular target: Gal(b1-3)GlcNAc(b1-3)Gal(b1-4)GlcNAc(b1-2)[Gal(b1-3)GlcNAc(b1-3)Gal(b1-4)GlcNAc(b1-6)]Man(a1-6)[Gal(b1-3)GlcNAc(b1-3)Gal(b1-4)GlcNAc(b1-2)Man(a1-3)]Man(b1-4)GlcNAc(b1-4)[Fuc(a1-6)]GlcNAc
# Outline: as §1
# [3] = molecular target: Gal(b1-3)GlcNAc(b1-3)Gal(b1-4)GlcNAc(b1-3)Gal(b1-4)GlcNAc(b1-2)[Gal(b1-3)GlcNAc(b1-3)Gal(b1-4)GlcNAc(b1-3)Gal(b1-4)GlcNAc(b1-6)]Man(a1-6)[Gal(b1-3)GlcNAc(b1-3)Gal(b1-4)GlcNAc(b1-3)Gal(b1-4)GlcNAc(b1-2)Man(a1-3)]Man(b1-4)GlcNAc(b1-4)[Fuc(a1-6)]GlcNAc
# Outline: as §1
# [4] = molecular target: Gal(b1-3)GlcNAc(b1-3)Gal(b1-4)GlcNAc(b1-6)[Gal(b1-3)GlcNAc(b1-3)]Gal(b1-4)Glc
# Outline: as §1
# [5] = molecular target: Gal(b1-3)GlcNAc(b1-3)Gal(b1-4)[Fuc(a1-3)]GlcNAc
# Outline: as §1
# [6] = molecular target: Gal(b1-3)GlcNAc(b1-3)Gal(b1-4)[Fuc(a1-3)]GlcNAc(b1-6)[Gal(b1-3)GlcNAc(b1-3)]Gal(b1-4)Glc
# Outline: as §1
# [7] = molecular target: Gal(b1-3)GlcNAc(b1-3)GalNAc
# Outline: as §1
# [8] = molecular target: Gal(b1-3)GlcNAc(b1-6)Gal(b1-4)GlcNAc
# Outline: as §1
# [9] = molecular target: Gal(b1-3)GlcNAc(b1-6)GalNAc
# Outline: as §1
# [10] = molecular target: Gal(b1-3)GlcNAc(b1-6)[Gal(b1-3)]GalNAc
# Outline: as §1
# Gal(b1-3)GlcNAc6S = molecular target: Gal(b1-3)GlcNAc6S
# Outline: as §1
# [11] = molecular target: Gal(b1-3)[Fuc(a1-4)]GlcNAc
# Outline: as §1
# [12] = molecular target: Gal(b1-3)[Fuc(a1-4)]GlcNAc(b1-2)Man
# Outline: as §1
# [13] = molecular target: Gal(b1-3)[Fuc(a1-4)]GlcNAc(b1-2)Man(a1-3)[Gal(b1-3)[Fuc(a1-4)]GlcNAc(b1-2)Man(a1-6)]Man(b1-4)GlcNAc(b1-4)[Fuc(a1-6)]GlcNAc
# Outline: as §1
# [14] = molecular target: Gal(b1-3)[Fuc(a1-4)]GlcNAc(b1-3)Gal(b1-3)[Fuc(a1-4)]GlcNAc
# Outline: as §1
# [15] = molecular target: Gal(b1-3)[Fuc(a1-4)]GlcNAc(b1-3)Gal(b1-4)[Fuc(a1-3)]GlcNAc
# Outline: as §1
# [16] = molecular target: Gal(b1-3)[Fuc(a1-4)]GlcNAc(b1-6)GalNAc
# Outline: as §1
# [17] = molecular target: Gal(b1-3)[GlcNAc(b1-6)]GalNAc
# Outline: as §1
# [18] = molecular target: Gal(b1-3)[Neu5Ac(a2-6)]GalNAc
# Outline: as §1
# [19] = molecular target: Gal(b1-3)[Neu5Ac(a2-6)]GlcNAc(b1-4)Gal(b1-4)Glc
# Outline: as §1
# [20] = molecular target: Gal(b1-3)[Neu5Ac(b2-6)]GalNAc
# Outline: as §1
# Gal(b1-4)Gal = molecular target: Gal(b1-4)Gal
# Outline: as §1
# [21] = molecular target: Gal(b1-4)GalNAc(a1-3)[Fuc(a1-2)]Gal(b1-4)GlcNAc
# Outline: as §1
# [22] = molecular target: Gal(b1-4)GalNAc(b1-3)[Fuc(a1-2)]Gal(b1-4)GlcNAc
# Outline: as §1
# Gal(b1-4)Glc = molecular target: Gal(b1-4)Glc
# Outline: as §1
# Gal(b1-4)Glc6S = molecular target: Gal(b1-4)Glc6S
# Outline: as §1
# Gal(b1-4)GlcNAc = molecular target: Gal(b1-4)GlcNAc
# Outline: as §1
# [23] = molecular target: Gal(b1-4)GlcNAc(a1-6)Gal(b1-4)GlcNAc
# Outline: as §1
# Gal(b1-4)GlcNAc(b1-2)Man = molecular target: Gal(b1-4)GlcNAc(b1-2)Man
# Outline: as §1
# [24] = molecular target: Gal(b1-4)GlcNAc(b1-2)Man(a1-3)Man(b1-4)GlcNAc(b1-4)GlcNAc
# Outline: as §1
# [25] = molecular target: Gal(b1-4)GlcNAc(b1-2)Man(a1-3)[Gal(b1-4)GlcNAc(b1-2)Man(a1-6)]Man(b1-4)GlcNAc(b1-4)GlcNAc
# Outline: as §1
# [26] = molecular target: Gal(b1-4)GlcNAc(b1-2)Man(a1-3)[Gal(b1-4)GlcNAc(b1-2)Man(a1-6)]Man(b1-4)GlcNAc(b1-4)[Fuc(a1-6)]GlcNAc
# Outline: as §1
# [27] = molecular target: Gal(b1-4)GlcNAc(b1-2)Man(a1-3)[Gal(b1-4)GlcNAc(b1-2)Man(a1-6)][Gal(b1-4)GlcNAc(b1-4)]Man(b1-4)GlcNAc(b1-4)[Fuc(a1-6)]GlcNAc
# Outline: as §1
# [28] = molecular target: Gal(b1-4)GlcNAc(b1-2)Man(a1-3)[Gal(b1-4)GlcNAc(b1-2)Man(a1-6)][GlcNAc(b1-4)]Man(b1-4)GlcNAc(b1-4)[Fuc(a1-6)]GlcNAc
# Outline: as §1
# [29] = molecular target: Gal(b1-4)GlcNAc(b1-2)Man(a1-3)[GlcNAc(b1-2)Man(a1-6)]Man(b1-4)GlcNAc(b1-4)GlcNAc
# Outline: as §1
# [30] = molecular target: Gal(b1-4)GlcNAc(b1-2)Man(a1-3)[GlcNAc(b1-4)][Gal(b1-4)GlcNAc(b1-2)Man(a1-6)]Man(b1-4)GlcNAc(b1-4)GlcNAc
# Outline: as §1
# [31] = molecular target: Gal(b1-4)GlcNAc(b1-2)Man(a1-3)[Man(a1-6)]Man(b1-4)GlcNAc(b1-4)GlcNAc
# Outline: as §1
# [32] = molecular target: Gal(b1-4)GlcNAc(b1-2)Man(a1-6)Man(b1-4)GlcNAc(b1-4)GlcNAc
# Outline: as §1
binder,measurement,setting,value
B1,glycan array binding signal (z-score),[1],1.56
same,glycan array binding signal (z-score),[2],1.6
same,glycan array binding signal (z-score),[3],-1.22
same,glycan array binding signal (z-score),[4],-0.066
same,glycan array binding signal (z-score),[5],-0.15
same,glycan array binding signal (z-score),[6],0.926
same,glycan array binding signal (z-score),[7],-0.04
same,glycan array binding signal (z-score),[8],0.062
same,glycan array binding signal (z-score),[9],0.625
same,glycan array binding signal (z-score),[10],-1.36
same,glycan array binding signal (z-score),Gal(b1-3)GlcNAc6S,-0.552
same,glycan array binding signal (z-score),[11],-0.281
same,glycan array binding signal (z-score),[12],-0.172
same,glycan array binding signal (z-score),[13],-0.202
same,glycan array binding signal (z-score),[14],-1
same,glycan array binding signal (z-score),[15],-0.38
same,glycan array binding signal (z-score),[16],0.341
same,glycan array binding signal (z-score),[17],0.055
same,glycan array binding signal (z-score),[18],-0.008
same,glycan array binding signal (z-score),[19],-0.866
same,glycan array binding signal (z-score),[20],0.512
same,glycan array binding signal (z-score),Gal(b1-4)Gal,-1.14
same,glycan array binding signal (z-score),[21],-0.148
same,glycan array binding signal (z-score),[22],0.471
same,glycan array binding signal (z-score),Gal(b1-4)Glc,-0.289
same,glycan array binding signal (z-score),Gal(b1-4)Glc6S,0.054
same,glycan array binding signal (z-score),Gal(b1-4)GlcNAc,0.13
same,glycan array binding signal (z-score),[23],0.001
same,glycan array binding signal (z-score),Gal(b1-4)GlcNAc(b1-2)Man,1.96
same,glycan array binding signal (z-score),[24],-1.1
same,glycan array binding signal (z-score),[25],-1.33
same,glycan array binding signal (z-score),[26],-0.547
same,glycan array binding signal (z-score),[27],-0.314
same,glycan array binding signal (z-score),[28],1.03
same,glycan array binding signal (z-score),[29],-0.401
same,glycan array binding signal (z-score),[30],-0.452
same,glycan array binding signal (z-score),[31],-0.911
same,glycan array binding signal (z-score),[32],-0.429

# 8 successive entries already listed:
binder,measurement,setting,value
B1,glycan array binding signal (z-score),[25],-1.33
same,glycan array binding signal (z-score),[26],-0.547
same,glycan array binding signal (z-score),[27],-0.314
same,glycan array binding signal (z-score),[28],1.03
same,glycan array binding signal (z-score),[29],-0.401
same,glycan array binding signal (z-score),[30],-0.452
same,glycan array binding signal (z-score),[31],-0.911
same,glycan array binding signal (z-score),[32],-0.429

# — the supplement of paper PMC8728848
